Results from publication PMC8513853.

Protein sequences, listed by entry. Tags and fused reporters are not part of them.
UniProt P0DTC6: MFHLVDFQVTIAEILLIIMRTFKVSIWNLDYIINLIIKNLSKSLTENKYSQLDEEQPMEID
UniProt Q9NXV6: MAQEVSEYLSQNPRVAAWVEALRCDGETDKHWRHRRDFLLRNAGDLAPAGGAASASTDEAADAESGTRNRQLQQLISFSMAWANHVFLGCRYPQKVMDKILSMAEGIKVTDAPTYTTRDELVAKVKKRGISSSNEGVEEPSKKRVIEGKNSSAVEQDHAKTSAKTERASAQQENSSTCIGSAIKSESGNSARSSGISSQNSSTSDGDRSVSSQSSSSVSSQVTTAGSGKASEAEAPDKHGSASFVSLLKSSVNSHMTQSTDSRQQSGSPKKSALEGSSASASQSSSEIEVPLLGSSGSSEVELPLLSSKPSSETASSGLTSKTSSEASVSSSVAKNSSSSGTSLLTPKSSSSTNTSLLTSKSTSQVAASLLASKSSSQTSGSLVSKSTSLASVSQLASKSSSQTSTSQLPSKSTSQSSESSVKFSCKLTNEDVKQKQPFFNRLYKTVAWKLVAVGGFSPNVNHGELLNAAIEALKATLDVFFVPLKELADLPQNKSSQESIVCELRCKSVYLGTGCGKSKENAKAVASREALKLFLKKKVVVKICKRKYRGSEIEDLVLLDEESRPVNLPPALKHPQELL
UniProt O60318: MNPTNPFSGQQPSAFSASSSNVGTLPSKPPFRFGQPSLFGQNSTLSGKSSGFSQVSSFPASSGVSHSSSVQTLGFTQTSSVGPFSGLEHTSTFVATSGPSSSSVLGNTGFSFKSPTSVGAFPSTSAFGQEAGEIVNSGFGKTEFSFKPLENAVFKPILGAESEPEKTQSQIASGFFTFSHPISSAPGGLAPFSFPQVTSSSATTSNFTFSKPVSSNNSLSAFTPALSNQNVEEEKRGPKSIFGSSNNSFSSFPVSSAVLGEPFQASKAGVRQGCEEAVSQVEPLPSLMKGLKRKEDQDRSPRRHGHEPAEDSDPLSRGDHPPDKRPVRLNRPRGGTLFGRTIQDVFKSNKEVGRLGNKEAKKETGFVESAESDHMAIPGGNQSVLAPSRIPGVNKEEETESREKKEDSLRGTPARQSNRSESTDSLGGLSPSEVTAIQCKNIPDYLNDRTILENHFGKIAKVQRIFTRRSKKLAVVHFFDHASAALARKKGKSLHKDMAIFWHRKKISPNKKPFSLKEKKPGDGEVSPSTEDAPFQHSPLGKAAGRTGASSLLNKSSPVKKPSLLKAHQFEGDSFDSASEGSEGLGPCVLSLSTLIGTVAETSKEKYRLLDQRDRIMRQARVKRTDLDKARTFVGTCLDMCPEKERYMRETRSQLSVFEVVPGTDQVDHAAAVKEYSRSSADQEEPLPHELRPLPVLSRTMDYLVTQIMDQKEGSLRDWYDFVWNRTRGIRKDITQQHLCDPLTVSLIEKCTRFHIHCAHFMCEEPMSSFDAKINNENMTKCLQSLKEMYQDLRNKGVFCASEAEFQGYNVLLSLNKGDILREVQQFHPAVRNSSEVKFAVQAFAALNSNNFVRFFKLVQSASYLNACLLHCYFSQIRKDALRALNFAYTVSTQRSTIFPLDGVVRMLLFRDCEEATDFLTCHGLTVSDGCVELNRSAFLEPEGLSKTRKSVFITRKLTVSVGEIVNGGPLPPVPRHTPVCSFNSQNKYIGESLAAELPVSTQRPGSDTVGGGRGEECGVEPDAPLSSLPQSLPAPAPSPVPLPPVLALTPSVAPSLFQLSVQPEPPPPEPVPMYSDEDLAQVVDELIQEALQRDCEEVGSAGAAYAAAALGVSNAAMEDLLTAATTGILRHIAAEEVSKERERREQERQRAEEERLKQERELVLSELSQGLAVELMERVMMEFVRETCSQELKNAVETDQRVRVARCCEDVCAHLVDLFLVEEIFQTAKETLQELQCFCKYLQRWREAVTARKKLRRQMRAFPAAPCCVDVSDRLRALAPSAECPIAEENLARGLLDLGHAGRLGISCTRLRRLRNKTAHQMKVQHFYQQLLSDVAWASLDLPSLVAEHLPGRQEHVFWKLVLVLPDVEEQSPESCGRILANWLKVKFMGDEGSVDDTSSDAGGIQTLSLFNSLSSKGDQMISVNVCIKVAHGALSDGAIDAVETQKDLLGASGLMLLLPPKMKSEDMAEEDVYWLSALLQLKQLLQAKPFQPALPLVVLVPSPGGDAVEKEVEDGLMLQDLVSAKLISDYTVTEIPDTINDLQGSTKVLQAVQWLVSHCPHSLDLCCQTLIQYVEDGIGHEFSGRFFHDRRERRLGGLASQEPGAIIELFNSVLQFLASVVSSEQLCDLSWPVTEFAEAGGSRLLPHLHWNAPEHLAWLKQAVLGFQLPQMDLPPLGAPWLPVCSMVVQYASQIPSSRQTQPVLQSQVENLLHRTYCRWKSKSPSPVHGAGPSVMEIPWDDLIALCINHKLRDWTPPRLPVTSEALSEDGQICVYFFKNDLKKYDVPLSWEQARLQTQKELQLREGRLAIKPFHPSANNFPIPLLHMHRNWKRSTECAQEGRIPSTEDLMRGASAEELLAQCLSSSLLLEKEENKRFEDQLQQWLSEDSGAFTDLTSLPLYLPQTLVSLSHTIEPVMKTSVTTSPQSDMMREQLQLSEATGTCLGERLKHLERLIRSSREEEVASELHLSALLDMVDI
UniProt Q7Z434: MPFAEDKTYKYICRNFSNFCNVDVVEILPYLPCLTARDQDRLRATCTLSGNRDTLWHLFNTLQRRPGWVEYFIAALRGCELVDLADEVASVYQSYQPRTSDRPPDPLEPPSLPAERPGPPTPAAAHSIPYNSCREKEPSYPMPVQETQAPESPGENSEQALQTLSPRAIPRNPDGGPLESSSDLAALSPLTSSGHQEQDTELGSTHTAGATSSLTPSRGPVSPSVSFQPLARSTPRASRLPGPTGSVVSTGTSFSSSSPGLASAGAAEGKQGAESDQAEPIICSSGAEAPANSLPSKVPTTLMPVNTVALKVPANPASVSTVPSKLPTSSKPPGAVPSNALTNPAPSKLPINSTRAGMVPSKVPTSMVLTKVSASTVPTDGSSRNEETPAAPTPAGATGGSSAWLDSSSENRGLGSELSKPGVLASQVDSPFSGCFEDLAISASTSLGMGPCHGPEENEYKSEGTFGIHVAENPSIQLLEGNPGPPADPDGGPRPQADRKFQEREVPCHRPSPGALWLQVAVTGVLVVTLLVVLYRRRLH
UniProt P78344: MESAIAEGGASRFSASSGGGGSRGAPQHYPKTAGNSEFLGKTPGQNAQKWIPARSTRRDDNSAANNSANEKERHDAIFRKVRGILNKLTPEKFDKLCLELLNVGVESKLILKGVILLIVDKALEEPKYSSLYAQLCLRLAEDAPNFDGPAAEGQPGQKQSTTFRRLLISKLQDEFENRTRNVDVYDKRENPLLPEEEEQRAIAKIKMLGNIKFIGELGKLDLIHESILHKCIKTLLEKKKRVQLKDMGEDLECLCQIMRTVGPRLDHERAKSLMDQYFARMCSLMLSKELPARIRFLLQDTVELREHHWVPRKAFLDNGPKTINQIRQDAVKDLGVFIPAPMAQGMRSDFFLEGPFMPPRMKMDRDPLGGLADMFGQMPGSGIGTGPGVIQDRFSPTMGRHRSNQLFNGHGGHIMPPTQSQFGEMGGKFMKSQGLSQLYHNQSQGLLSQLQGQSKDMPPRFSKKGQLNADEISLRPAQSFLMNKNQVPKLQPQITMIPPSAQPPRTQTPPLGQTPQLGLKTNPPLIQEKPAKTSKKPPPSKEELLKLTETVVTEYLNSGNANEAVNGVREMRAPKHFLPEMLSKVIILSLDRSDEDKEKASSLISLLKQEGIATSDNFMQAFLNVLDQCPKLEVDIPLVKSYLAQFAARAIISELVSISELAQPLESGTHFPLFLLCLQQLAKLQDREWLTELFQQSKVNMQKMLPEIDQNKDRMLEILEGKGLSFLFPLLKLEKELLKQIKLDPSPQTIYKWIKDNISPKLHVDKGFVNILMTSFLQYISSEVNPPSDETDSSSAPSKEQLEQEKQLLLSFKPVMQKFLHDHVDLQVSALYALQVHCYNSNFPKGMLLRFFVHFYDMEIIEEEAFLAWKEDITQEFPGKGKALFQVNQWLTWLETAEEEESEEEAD

Columns and labels:
Experiment in all cases: proximity labelling
[1] = target: SARS-CoV-2 NSP5, HA-BASU fusion (SARS-CoV-2) (UniProt P0DTD1)
[2] = target: SARS-CoV-2 NSP1, HA-BASU fusion (SARS-CoV-2) (UniProt P0DTD1)
[3] = target: SARS-CoV-2 ORF6, HA-BASU fusion (SARS-CoV-2) (UniProt P0DTC6)

Substance | binding [2] | binding [3] | further results
CDKN2AIP (from UniProt Q9NXV6 1-580) |  |  | binding [1]: binds
EIF3B (from UniProt P55884 1-814) | binds |  | 
MCM3AP (from UniProt O60318 1-1980) |  | binds | 
Mitochondrial Activation of Viral Signaling (MAVS) (from UniProt Q7Z434 1-540) |  | binds | 
EIF4G2 (from UniProt P78344 1-907) | binds |  | 

These are yes or no findings as the source states them, for the method shown. In cells and extracts the contact can be indirect. A yes stands for co-enrichment or nearness to the bait. Other partners may have been found.
